{"source": "patent US20180117043A1", "about": "“USE OF SRC PROTEIN INHIBITOR IN THE MANUFACTURE OF A MEDICAMENT FOR THE PROPHYLAXIS AND/OR TREATMENT OF ALZHEIMER'S DISEASE” (JenKem Technology Co., Ltd. (Beijing), priority 2015, published 2018)", "origin": "cited, not measured here", "tested_on": "transgenic fruit flies and double transgenic mice expressing Aβ42", "settings": "WO2012/103282; cited from earlier work", "note": "For at least one compound, name, drawing or mass did not settle the structure.", "data": [{"smiles": "CCOc1cc2ncc(C#N)c(Nc3ccc(OCc4ccccn4)c(Cl)c3)c2cc1NC(=O)/C=C/CN(C)C", "note": "[HKI-272]", "values": [{"measurement": "treatment of Aβ42-induced memory loss", "result": "effective"}]}]}
